In publication doi:10.1101/2023.07.22.550030:
No constants are given. Whether binding was seen depends on the method and setting. Binding seen in cells or lysates may run through a third protein. A yes stands for co-enrichment or nearness to the bait. Other partners may have been found.

The chains behind the UniProt entries cited, without tags or fusion partners. Where a name states a change or a piece, a line headed by the entry shows the natural chain unless it says otherwise. A line that says so, or that is headed by a name, gives the form on record, which may keep a tag or linker.
UniProt Q9BUJ2: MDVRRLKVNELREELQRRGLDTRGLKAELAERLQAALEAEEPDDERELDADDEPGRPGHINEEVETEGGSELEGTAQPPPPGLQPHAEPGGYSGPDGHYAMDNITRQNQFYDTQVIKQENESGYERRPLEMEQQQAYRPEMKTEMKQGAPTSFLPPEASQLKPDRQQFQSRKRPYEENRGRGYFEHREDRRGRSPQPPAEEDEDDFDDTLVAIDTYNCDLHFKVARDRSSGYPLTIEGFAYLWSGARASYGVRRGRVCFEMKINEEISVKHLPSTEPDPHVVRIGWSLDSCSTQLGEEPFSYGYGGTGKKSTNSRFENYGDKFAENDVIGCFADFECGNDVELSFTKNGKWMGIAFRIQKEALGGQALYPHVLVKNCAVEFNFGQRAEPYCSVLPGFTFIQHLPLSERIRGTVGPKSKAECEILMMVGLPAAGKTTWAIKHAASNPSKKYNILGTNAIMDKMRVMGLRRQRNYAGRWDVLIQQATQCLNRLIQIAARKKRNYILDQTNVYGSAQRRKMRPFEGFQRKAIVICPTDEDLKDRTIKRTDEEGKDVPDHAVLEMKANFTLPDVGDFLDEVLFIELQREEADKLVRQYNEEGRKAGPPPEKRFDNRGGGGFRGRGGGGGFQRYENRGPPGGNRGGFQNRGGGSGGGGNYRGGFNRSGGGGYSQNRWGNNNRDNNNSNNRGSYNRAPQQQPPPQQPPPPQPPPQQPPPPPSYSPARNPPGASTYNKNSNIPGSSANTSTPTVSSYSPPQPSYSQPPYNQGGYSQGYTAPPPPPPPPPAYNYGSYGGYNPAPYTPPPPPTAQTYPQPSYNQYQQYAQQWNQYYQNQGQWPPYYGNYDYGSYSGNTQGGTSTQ
FLAG-tagged hnRNPUL1 ΔWA (Walker A motif mutant) (Q9BUJ2, form named): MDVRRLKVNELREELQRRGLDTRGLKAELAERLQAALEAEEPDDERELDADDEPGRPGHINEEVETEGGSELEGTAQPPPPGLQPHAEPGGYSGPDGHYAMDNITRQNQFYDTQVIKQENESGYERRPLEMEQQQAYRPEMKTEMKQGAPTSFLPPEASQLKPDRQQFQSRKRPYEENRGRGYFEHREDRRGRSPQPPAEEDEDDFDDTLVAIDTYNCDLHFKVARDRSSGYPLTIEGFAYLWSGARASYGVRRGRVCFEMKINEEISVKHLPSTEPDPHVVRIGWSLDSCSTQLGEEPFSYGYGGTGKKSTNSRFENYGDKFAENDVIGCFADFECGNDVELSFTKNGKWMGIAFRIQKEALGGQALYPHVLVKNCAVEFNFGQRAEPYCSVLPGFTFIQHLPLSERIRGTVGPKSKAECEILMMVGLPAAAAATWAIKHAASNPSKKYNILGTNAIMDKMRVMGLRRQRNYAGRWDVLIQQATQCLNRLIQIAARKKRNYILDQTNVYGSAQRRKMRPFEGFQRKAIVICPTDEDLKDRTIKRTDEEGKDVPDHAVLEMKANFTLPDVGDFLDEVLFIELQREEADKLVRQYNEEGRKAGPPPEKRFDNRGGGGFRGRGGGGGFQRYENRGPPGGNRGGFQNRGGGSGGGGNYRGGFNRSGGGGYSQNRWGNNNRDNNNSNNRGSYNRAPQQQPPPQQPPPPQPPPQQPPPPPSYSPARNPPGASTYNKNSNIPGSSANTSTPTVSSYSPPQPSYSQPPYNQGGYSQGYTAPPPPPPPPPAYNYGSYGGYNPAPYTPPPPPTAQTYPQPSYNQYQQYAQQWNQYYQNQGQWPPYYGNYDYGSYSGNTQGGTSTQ
UniProt Q01844: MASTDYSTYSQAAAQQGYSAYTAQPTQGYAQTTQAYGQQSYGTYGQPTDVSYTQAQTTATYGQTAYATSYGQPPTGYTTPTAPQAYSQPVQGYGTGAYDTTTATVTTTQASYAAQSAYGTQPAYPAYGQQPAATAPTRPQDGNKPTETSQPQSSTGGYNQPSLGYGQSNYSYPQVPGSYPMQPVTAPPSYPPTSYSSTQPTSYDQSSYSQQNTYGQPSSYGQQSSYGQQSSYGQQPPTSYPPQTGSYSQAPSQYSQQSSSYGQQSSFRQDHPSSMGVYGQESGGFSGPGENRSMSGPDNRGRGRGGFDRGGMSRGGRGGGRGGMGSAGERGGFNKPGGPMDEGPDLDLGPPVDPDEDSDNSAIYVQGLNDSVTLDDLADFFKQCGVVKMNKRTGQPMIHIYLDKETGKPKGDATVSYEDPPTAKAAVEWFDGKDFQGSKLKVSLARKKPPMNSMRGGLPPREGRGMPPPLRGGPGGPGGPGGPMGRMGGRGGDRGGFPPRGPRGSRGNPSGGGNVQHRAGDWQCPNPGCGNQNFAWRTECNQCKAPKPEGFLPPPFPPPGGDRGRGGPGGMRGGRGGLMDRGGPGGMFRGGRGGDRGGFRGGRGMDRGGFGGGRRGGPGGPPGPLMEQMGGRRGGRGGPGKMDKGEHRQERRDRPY

Target: FLAG-tagged hnRNPUL1 ΔWA (Walker A motif mutant) (human) (UniProt Q9BUJ2)
Assay: affinity purification with mass spectrometry

binding: binds
Substance: EWSR1 (from UniProt Q01844 1-656)
